Bridges are numbered along the chain shown (N, C = ends).
Test: general procedure: Fmoc solid-phase peptide synthesis; Tentagel R (Rapp Polymere); HOBt/TBTU/DIPEA
Details: whole synthesis

| Substance | final purity (method not given) [%] |
| --- | --- |
| Cyclo(Lys^27-Asp^30)-hPTH-(1-31)-NH2 | >95 |
| H-SVSEIQLMHNLGKHLNSMERVEWLRKLLQD-NH2 (lactam 22-26; SMILES CC[C@H](C)[C@H](NC(=O)[C@H](CCC(=O)O)NC(=O)[C@H](CO)NC(=O)[C@@H](NC(=O)[C@@H](N)CO)C(C)C)C(=O)N[C@@H](CCC(N)=O)C(=O)N[C@@H](CC(C)C)C(=O)N[C@@H](CCSC)C(=O)N[C@@H](Cc1c[nH]cn1)C(=O)N[C@@H](CC(N)=O)C(=O)N[C@@H](CC(C)C)C(=O)NCC(=O)N[C@@H](CCCCN)C(=O)N[C@@H](Cc1c[nH]cn1)C(=O)N[C@@H](CC(C)C)C(=O)N[C@@H](CC(N)=O)C(=O)N[C@@H](CO)C(=O)N[C@@H](CCSC)C(=O)N[C@@H](CCC(=O)O)C(=O)N[C@@H](CCCNC(=N)N)C(=O)N[C@H](C(=O)N[C@H]1CCC(=O)NCCCC[C@@H](C(=O)N[C@@H](CC(C)C)C(=O)N[C@@H](CC(C)C)C(=O)N[C@@H](CCC(N)=O)C(=O)N[C@@H](CC(=O)O)C(N)=O)NC(=O)[C@H](CCCNC(=N)N)NC(=O)[C@H](CC(C)C)NC(=O)[C@H](Cc2c[nH]c3ccccc23)NC1=O)C(C)C) | >97 |

Reference: patent US6541450B1 (National Research Council of Canada, priority 1994, dated 2003)
